Results are given in words; binding and its absence hold for the method and conditions named. Binding seen in cells or lysates may run through a third protein. Binding calls can cover weak binding; strength is not graded here.
What was measured:
[1] = target: isolated CCTL2 domain of WNK1 (EGFP-WNK1 1056-1217) (human) (UniProt Q9H4A3); assay: co-IP; isolated CCTL1 or CCTL2 domain of WNK1 co-expressed with full-length TSC22D2 or TSC22D4, wild type or RΦ-motif mutants (fig. S8, E and F)
[2] = target: isolated CCTL1 domain of WNK1 (EGFP-WNK1 450-600) (human) (UniProt Q9H4A3); assay: as above

By UniProt entry, the sequences of proteins in these tests, tags left out. Where a name states a change or a piece, a line headed by the entry shows the natural chain unless it says otherwise. Residues count along the entry.
isolated CCTL1 domain of WNK1 (EGFP-WNK1 450-600) (Q9H4A3, residues 450-600): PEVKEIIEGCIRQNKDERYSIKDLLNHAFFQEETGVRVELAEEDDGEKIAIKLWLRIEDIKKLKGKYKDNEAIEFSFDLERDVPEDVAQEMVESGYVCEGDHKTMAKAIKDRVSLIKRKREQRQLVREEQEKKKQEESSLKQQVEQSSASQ
isolated CCTL2 domain of WNK1 (EGFP-WNK1 1056-1217) (Q9H4A3, residues 1056-1217): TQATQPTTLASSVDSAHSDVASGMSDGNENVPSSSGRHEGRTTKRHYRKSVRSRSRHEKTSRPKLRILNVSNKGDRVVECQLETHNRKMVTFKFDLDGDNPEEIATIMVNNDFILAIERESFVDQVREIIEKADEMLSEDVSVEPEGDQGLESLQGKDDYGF
UniProt Q9Y3Q8: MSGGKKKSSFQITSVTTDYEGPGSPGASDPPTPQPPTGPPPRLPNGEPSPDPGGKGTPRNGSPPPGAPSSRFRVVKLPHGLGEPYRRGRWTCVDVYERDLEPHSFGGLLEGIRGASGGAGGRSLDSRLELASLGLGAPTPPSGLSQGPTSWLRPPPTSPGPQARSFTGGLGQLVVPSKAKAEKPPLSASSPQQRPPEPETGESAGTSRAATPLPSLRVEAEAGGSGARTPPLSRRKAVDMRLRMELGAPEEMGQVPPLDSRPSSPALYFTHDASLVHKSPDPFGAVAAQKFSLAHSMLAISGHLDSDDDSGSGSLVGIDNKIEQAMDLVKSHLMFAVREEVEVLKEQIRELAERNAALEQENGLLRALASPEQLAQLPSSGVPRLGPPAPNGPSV
UniProt O75157: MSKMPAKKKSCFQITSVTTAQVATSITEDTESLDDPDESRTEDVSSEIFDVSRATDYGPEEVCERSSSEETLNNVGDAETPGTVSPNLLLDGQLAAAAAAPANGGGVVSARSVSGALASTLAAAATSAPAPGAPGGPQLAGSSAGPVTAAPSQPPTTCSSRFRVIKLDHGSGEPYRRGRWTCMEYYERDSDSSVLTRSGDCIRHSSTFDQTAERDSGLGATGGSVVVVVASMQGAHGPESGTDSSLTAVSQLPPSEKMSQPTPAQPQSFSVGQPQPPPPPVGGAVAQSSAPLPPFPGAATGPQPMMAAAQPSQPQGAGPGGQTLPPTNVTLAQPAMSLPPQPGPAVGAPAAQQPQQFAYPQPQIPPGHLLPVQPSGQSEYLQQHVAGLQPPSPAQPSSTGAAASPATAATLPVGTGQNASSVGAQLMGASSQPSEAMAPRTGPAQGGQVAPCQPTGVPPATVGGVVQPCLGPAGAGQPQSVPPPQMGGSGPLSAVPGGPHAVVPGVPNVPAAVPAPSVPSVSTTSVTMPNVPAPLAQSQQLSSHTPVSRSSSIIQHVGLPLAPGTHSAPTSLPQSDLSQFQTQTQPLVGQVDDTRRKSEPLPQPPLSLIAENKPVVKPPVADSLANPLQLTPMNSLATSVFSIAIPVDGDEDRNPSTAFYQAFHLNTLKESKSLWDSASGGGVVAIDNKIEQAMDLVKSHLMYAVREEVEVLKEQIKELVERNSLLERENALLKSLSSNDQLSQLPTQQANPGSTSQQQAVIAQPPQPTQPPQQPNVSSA

## full-length TSC22D4 with the RΦ-motif-B mutation (Flag TSC22D4 R89A) (from UniProt Q9Y3Q8)
[1]
  binding: binds
[2]
  binding: binds

## full-length TSC22D2 with the RΦ-motif-B mutation (from UniProt O75157)
[1]
  binding: binds
[2]
  binding: binds

## full-length TSC22D2 with the RΦ-motif-A mutation (from UniProt O75157)
[1]
  binding: binds

## full-length TSC22D4 with the RΦ-motif-A mutation (Flag TSC22D4 R71A F72A) (from UniProt Q9Y3Q8)
[1]
  binding: binds
